Results reported in the supplement of paper PMC10849652.
This is one part of the list.

Amino acid sequences for entries named in this document (tags omitted). A change or cut given only in a name is not applied to a line headed by its entry.
UniProt P55058, whole entry, looked up: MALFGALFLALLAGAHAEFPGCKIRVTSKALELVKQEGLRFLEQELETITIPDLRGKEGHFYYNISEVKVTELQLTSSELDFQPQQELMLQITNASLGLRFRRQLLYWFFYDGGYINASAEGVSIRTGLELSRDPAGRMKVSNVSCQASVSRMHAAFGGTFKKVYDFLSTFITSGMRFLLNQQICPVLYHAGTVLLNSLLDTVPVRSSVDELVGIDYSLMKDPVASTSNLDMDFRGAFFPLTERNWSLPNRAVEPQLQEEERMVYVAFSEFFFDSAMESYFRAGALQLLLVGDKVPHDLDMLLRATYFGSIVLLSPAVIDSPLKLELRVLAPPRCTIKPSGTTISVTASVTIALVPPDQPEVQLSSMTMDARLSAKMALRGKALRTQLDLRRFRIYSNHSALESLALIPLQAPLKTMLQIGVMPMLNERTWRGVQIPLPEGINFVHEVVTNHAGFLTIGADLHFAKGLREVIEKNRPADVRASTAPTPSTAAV
UniProt Q92871: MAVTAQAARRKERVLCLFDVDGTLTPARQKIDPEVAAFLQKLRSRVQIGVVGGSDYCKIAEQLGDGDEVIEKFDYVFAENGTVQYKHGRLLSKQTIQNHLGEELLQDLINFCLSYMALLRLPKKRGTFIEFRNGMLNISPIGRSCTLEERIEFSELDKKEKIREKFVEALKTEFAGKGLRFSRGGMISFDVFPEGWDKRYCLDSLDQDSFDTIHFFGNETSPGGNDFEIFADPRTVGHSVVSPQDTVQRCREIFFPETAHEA
UniProt Q8IY26: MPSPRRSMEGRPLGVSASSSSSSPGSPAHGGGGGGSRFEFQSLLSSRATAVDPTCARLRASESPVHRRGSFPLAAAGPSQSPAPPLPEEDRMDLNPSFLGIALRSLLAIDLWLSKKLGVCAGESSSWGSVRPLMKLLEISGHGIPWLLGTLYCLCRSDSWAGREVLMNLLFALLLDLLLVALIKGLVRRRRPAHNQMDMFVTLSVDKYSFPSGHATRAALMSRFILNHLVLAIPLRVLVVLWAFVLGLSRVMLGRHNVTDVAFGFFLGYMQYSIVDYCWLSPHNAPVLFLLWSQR
UniProt Q8NBT0: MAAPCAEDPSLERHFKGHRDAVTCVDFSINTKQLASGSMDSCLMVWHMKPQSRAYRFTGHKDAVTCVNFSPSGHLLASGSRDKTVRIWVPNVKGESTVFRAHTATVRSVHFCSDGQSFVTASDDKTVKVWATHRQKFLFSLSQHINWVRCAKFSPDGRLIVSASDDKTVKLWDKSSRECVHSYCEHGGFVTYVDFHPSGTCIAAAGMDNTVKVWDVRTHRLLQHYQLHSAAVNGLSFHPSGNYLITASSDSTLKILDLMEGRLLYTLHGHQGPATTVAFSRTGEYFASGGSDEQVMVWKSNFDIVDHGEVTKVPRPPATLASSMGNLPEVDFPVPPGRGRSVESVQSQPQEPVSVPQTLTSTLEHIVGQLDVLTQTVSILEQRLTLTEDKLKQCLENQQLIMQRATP
UniProt P29590: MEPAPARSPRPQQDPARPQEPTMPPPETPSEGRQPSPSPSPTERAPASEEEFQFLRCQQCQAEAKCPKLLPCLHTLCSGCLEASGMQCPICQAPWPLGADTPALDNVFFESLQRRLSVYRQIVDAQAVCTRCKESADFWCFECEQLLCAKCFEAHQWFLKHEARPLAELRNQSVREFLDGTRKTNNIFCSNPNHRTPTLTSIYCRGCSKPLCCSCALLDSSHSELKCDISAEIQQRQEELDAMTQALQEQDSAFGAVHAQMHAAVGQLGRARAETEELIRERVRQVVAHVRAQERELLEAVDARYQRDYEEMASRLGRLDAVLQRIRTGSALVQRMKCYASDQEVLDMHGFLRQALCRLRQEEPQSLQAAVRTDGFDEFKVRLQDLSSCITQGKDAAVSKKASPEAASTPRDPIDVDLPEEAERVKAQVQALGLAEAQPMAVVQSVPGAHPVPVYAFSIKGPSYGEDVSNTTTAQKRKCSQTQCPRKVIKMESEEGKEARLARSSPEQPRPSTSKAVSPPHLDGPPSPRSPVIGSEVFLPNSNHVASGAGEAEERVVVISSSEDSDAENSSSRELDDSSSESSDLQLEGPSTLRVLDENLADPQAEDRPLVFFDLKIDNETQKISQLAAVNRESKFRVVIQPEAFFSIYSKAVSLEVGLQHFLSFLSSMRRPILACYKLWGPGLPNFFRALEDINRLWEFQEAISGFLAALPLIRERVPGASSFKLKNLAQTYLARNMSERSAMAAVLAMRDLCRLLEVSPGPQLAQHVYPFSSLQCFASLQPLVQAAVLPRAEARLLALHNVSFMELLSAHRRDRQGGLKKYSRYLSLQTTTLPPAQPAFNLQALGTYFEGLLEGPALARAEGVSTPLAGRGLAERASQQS
UniProt P45877: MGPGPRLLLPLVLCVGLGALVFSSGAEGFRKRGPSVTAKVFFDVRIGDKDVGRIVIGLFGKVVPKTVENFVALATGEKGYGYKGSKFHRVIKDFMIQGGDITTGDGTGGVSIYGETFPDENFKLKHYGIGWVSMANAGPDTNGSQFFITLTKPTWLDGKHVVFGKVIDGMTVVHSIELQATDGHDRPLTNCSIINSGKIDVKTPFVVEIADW
UniProt P11086: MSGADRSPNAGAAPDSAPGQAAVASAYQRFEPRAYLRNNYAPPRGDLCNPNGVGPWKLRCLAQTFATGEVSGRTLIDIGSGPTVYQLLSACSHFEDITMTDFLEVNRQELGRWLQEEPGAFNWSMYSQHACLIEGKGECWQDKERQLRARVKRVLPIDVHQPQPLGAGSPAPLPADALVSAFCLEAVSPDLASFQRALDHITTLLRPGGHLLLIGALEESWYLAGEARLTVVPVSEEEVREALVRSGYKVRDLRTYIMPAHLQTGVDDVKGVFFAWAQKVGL
UniProt Q9Y6A1: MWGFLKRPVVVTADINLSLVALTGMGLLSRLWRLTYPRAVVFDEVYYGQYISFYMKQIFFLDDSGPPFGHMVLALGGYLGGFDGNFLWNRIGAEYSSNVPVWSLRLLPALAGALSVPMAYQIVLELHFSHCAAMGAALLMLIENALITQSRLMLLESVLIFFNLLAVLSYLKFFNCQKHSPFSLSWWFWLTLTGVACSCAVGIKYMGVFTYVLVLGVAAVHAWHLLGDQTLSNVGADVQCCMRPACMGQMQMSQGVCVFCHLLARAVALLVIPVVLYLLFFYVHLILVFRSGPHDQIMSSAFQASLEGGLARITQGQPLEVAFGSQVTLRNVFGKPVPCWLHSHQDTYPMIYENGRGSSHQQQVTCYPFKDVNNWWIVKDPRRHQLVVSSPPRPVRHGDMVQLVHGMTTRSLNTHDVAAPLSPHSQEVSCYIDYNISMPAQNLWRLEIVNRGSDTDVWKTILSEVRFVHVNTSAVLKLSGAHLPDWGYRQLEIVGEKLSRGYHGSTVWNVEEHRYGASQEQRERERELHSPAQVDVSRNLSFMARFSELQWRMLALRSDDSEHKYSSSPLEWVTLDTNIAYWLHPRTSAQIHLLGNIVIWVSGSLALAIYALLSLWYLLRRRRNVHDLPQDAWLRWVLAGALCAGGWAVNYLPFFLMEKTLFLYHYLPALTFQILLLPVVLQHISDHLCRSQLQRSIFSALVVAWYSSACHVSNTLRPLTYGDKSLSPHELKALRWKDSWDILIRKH
UniProt Q9UBT6: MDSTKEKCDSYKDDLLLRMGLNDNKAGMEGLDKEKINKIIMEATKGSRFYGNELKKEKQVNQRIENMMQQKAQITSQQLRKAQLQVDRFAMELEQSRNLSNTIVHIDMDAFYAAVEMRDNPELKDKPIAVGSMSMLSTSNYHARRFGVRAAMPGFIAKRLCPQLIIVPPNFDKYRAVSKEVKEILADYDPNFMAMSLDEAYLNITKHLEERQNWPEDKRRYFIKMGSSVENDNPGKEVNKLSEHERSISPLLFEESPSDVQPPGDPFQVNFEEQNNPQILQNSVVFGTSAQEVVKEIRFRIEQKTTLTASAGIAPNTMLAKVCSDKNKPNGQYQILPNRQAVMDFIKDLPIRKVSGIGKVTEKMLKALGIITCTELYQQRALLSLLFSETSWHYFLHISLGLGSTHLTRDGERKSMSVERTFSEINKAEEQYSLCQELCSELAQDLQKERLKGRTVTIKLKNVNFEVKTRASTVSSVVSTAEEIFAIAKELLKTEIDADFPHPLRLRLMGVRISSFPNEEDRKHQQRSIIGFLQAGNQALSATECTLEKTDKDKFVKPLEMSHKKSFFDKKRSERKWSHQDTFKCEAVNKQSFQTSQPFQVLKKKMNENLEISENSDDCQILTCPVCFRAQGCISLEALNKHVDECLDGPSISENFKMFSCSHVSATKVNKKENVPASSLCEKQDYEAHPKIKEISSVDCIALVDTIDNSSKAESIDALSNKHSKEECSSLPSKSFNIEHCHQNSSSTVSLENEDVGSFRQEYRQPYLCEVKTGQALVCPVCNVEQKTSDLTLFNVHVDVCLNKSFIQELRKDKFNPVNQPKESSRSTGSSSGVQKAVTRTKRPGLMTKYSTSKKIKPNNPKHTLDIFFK
UniProt P62937, whole entry, looked up: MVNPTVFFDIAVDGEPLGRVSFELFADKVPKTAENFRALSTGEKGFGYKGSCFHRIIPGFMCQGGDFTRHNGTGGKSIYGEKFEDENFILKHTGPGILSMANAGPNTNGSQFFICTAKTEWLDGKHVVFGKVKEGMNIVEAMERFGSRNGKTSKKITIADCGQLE
UniProt Q9Y4D7: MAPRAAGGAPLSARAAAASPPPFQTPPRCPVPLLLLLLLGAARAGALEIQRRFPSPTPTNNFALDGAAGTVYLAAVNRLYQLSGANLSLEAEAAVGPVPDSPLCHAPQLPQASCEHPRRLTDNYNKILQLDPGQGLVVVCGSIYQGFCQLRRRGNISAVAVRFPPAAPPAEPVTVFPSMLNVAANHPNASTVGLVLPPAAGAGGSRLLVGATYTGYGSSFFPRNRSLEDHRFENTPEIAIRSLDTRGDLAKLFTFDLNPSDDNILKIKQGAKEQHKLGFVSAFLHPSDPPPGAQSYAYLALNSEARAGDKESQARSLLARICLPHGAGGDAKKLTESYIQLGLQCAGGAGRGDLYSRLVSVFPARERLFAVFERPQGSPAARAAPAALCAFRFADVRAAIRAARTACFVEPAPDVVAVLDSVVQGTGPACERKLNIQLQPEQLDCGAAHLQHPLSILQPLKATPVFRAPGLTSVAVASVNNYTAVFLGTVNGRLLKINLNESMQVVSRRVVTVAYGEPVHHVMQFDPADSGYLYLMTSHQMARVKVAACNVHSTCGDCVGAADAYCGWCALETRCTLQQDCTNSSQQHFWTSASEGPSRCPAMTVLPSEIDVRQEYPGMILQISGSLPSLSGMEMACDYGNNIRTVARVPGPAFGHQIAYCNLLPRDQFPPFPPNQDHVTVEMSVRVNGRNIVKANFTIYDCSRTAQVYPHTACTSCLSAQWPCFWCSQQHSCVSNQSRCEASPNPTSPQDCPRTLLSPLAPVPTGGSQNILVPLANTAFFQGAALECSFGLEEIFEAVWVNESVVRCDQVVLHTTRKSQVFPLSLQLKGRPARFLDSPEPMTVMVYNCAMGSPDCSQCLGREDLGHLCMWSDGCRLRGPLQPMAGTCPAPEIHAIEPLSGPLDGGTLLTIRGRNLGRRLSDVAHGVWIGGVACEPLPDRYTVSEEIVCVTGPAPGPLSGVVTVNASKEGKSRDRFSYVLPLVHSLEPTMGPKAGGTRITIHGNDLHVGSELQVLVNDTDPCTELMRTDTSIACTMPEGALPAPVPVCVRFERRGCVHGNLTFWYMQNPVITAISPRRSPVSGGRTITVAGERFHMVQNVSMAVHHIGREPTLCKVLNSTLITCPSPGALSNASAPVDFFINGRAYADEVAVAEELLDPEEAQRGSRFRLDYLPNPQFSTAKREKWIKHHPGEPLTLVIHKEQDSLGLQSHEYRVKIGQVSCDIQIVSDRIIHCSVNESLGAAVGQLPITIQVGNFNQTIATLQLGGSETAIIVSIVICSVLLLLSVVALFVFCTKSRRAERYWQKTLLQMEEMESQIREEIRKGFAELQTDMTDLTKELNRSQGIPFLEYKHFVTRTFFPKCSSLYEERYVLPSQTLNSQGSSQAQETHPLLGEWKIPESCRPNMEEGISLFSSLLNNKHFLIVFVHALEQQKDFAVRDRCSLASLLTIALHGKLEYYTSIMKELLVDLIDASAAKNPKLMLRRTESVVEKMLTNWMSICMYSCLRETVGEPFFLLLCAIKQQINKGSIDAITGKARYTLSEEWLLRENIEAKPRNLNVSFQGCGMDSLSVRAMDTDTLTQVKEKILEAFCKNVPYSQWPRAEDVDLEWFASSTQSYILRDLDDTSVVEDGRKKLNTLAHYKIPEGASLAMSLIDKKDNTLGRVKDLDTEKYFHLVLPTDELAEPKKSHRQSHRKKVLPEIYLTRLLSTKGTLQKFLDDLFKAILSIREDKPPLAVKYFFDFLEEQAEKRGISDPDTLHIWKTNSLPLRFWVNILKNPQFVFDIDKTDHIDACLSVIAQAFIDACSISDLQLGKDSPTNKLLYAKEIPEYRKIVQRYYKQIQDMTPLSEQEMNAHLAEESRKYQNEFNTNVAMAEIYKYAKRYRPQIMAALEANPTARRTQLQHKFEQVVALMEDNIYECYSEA

Compound: CCCS(=O)(=O)Nc1ccc(F)c(C(=O)c2c[nH]c3ncc(-c4ccc(Cl)cc4)cc23)c1F [vemurafenib]
Assay: log2 fold change, soluble protein after heating vs DMSO (PISA); higher = thermal stabilisation; K562 lysate, 10 uM; active = over 0.2 and 3.5 SD of the protein, either way, in both replicates (recomputed)
In short: (§1)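 Soluble protein was defined as the supernatant remaining after 21,000xg for 90 min, following pooling of heated aliquots and adjustment to 0.5% NP-40 at 4°C. Before that, crude K562 extract at 1 mg/mL protein in PBS pH 7.4 with 1 mM MgCl2 was treated with 10 μM compound for 30 min and heated for 3 min across 48°C-58°C. Quantification used TMTpro 16plex LC-MS/MS with channel sums equalised, and values are log-two fold changes in thermal stability relative to solvent controls from duplicates.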

log2 fold change, inactive:
PLTP (UniProt P55058) 0.095
POLR2K (UniProt P53803) -0.074
PLEKHM1 (UniProt Q9Y4G2) -0.062
POC1B (UniProt Q8TC44) -0.347
PMM1 (UniProt Q92871) -0.022
POSTN (UniProt Q15063) -0.091
PMS1 (UniProt P54277) 0.037
PLPP6 (UniProt Q8IY26) 0.094
PNPLA4 (UniProt P41247) 0.098
POC1A (UniProt Q8NBT0) -0.155
PML isoform 11 (UniProt P29590) 0.078
PPIC (UniProt P45877) -0.009
PLEKHG4 (UniProt Q58EX7) -0.019
PPHLN1 isoform 3 (UniProt Q8NEY8) -0.144
PNMT (UniProt P11086) 0.161
PLOD2 isoform 2 (UniProt O00469) -0.037
POMK (UniProt Q9H5K3) 0.06
PLGRKT (UniProt Q9HBL7) 0.162

Compound: CCCS(=O)(=O)Nc1ccc(F)c(C(=O)c2c[nH]c3ncc(Cl)cc23)c1F
Assay: as above
In short: as §1

log2 fold change, inactive:
POTEKP (UniProt Q9BYX7) 0.224
POMT1 (UniProt Q9Y6A1) -0.079
POLK (UniProt Q9UBT6) -0.044
POLG2 (UniProt J3KRM2) 0.163
PMS2CL (UniProt Q68D20) 0.178
POC1A (UniProt Q8NBT0) 0.128
POLR2J (UniProt P52435) -0.002
PNMT (UniProt P11086) 0.121
PNMA8A (UniProt Q86V59) 0.223
POM121C (UniProt A8CG34) -0.037

Compound: CCN(CCCOc1ccc2c(Nc3cc(CC(=O)Nc4cccc(F)c4)[nH]n3)ncnc2c1)CCOP(=O)(O)O [barasertib]
Assay: as above
In short: as §1

log2 fold change, inactive:
POTEKP (UniProt Q9BYX7) 0.772
POLR2K (UniProt P53803) 0.094
POLK (UniProt Q9UBT6) -0.306
PMM1 (UniProt Q92871) -0.027
POLG2 (UniProt J3KRM2) 0.084
POSTN (UniProt Q15063) -0.012
PMS1 (UniProt P54277) 0.193
PPIA isoform 2 (UniProt P62937) -0.024
PLXND1 (UniProt Q9Y4D7) 0.045
PMS2CL (UniProt Q68D20) -0.069
POLR2J (UniProt P52435) 0.057
PPIC (UniProt P45877) 0.203
PLOD2 isoform 2 (UniProt O00469) 0.203
POMK (UniProt Q9H5K3) 0.063
PLGRKT (UniProt Q9HBL7) 0.089
PNMA8A (UniProt Q86V59) 0.052
POM121C (UniProt A8CG34) 0.201
